Source: the supplement of paper PMC11006884
This list holds what a sample rich in targets with a hit left over. The data scatter; read single values as rough. The list shows a part of the results, in another mix than the full data.

Sequences of proteins named here, by UniProt entry; tags and fusion partners are left off. A change or cut given only in a name is not applied to a line headed by its entry.
UniProt P15531, whole entry, looked up: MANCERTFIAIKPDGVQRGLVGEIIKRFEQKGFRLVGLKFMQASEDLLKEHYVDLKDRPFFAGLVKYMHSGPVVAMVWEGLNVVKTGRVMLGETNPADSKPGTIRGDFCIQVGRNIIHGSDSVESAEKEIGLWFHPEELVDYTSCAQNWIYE
UniProt P10599: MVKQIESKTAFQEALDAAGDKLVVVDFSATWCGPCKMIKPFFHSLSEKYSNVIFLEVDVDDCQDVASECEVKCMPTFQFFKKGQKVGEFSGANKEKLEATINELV
UniProt P13716: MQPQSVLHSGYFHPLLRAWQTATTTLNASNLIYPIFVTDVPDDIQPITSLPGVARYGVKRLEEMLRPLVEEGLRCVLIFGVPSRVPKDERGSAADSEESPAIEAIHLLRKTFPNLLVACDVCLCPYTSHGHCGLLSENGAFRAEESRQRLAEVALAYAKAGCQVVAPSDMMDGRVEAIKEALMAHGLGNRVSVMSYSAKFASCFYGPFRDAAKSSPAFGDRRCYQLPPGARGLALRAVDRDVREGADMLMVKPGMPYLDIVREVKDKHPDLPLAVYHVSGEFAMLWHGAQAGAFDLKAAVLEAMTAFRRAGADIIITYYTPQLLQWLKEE
UniProt P13804: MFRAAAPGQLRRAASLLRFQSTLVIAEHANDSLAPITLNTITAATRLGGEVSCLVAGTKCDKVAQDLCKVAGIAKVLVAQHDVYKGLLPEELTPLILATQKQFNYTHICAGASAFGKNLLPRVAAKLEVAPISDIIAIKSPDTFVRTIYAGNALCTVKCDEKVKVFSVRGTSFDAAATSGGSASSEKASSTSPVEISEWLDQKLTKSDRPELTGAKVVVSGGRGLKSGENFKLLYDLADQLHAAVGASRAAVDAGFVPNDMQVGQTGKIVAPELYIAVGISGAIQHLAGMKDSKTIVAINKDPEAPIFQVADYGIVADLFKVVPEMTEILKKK
UniProt P08621, whole entry: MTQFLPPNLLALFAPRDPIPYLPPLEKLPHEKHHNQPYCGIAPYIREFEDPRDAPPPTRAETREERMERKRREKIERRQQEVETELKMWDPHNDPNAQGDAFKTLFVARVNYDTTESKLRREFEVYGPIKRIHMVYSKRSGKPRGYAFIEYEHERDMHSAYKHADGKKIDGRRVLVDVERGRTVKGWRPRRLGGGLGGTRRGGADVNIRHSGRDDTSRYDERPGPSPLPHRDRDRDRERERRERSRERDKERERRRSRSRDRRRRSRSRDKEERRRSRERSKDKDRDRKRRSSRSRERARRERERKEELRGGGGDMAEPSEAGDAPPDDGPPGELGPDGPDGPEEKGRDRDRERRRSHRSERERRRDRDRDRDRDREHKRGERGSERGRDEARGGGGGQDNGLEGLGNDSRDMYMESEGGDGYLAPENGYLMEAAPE
UniProt P10768: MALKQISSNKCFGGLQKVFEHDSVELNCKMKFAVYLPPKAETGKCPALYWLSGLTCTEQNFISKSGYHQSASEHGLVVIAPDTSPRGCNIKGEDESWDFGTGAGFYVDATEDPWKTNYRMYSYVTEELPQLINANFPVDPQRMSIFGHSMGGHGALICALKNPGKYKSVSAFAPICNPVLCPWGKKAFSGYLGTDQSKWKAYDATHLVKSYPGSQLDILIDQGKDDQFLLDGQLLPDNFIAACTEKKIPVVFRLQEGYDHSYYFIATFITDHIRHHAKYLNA
UniProt P14618, whole entry, looked up: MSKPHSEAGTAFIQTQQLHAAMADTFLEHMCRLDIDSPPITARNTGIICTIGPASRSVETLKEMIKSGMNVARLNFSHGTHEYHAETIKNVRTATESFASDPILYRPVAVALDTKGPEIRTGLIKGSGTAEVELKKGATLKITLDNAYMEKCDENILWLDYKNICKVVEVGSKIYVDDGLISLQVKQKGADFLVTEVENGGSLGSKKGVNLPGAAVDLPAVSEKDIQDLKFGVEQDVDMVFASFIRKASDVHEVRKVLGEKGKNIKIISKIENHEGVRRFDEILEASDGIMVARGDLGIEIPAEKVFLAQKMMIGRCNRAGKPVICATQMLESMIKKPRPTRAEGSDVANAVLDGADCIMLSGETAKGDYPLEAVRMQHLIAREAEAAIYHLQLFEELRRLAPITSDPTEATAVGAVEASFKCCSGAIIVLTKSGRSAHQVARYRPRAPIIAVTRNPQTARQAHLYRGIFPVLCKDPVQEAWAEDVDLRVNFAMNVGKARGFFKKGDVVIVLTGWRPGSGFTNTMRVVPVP
UniProt P07814: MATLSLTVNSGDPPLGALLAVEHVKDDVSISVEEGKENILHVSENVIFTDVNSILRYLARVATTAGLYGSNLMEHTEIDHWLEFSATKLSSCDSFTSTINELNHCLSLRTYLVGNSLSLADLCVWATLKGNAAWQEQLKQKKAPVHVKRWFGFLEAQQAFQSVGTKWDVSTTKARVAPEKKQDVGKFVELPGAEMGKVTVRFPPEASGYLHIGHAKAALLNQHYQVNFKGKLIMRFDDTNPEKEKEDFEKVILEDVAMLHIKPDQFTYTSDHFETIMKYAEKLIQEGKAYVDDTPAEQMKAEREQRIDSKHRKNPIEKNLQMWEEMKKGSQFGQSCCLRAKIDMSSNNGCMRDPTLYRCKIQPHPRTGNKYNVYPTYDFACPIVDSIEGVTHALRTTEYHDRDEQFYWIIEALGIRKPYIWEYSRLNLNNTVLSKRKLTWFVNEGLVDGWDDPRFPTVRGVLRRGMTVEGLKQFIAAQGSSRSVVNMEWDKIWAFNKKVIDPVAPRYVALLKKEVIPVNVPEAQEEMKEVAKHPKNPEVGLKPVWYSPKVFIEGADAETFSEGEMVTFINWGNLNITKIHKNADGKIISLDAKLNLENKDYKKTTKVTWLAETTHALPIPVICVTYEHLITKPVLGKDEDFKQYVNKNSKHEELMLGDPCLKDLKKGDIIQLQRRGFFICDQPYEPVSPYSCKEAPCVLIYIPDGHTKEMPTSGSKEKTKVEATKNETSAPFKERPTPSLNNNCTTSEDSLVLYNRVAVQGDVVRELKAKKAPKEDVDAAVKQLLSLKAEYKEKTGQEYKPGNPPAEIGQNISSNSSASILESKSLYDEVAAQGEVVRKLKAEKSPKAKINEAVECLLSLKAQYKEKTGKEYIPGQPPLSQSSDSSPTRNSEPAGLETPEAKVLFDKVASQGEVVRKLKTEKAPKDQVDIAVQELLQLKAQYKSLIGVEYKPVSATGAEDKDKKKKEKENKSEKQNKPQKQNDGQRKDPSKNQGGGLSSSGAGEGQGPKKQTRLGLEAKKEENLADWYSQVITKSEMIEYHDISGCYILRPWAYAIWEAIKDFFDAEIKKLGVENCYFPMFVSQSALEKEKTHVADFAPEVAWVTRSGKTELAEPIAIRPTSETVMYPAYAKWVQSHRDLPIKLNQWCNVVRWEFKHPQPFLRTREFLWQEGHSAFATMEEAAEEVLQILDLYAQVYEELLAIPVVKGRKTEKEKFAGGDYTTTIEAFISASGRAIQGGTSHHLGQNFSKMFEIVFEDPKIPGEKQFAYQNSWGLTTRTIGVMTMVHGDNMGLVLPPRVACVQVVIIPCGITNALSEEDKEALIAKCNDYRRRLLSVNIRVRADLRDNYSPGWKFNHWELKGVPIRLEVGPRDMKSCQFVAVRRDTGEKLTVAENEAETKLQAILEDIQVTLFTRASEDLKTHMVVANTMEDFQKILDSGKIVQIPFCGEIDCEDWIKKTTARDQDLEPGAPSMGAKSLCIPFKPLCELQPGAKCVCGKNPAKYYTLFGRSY
UniProt P13797: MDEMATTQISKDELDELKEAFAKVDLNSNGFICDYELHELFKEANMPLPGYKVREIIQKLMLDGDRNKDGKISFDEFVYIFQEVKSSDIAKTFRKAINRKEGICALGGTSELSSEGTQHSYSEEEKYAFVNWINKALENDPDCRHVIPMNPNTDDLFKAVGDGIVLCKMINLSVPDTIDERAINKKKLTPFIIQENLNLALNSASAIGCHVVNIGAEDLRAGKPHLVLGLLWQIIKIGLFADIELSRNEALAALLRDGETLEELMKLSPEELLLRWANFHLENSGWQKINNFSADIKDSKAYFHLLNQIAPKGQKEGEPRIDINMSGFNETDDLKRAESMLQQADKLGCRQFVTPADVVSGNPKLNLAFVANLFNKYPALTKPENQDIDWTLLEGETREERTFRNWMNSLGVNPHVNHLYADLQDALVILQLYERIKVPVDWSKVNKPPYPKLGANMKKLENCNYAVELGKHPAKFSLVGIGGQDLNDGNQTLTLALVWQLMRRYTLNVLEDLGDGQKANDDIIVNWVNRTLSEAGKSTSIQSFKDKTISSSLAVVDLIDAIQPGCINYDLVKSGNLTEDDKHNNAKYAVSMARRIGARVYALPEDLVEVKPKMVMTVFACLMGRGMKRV
UniProt P17174: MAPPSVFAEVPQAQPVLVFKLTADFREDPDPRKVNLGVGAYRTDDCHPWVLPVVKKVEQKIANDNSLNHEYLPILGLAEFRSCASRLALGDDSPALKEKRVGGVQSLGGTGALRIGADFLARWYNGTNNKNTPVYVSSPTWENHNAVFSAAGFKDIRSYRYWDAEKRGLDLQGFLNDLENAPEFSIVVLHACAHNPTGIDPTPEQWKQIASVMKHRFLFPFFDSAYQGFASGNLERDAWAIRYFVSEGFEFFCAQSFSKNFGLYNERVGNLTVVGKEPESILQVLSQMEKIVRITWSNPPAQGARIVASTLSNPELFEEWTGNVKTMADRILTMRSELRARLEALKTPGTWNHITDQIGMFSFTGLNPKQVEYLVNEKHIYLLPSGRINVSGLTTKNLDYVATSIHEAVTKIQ
UniProt P11310: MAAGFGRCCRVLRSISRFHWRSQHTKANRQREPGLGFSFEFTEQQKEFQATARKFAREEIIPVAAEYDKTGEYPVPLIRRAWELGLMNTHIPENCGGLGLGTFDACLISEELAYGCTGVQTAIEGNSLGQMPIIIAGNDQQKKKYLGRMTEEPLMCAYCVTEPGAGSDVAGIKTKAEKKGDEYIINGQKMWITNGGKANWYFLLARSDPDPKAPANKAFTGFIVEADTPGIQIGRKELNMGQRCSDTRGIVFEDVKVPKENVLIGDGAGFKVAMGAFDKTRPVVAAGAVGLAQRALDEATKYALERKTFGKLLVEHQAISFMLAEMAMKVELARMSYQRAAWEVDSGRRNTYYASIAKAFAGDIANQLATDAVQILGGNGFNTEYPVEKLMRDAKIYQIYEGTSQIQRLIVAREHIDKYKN
UniProt P08240: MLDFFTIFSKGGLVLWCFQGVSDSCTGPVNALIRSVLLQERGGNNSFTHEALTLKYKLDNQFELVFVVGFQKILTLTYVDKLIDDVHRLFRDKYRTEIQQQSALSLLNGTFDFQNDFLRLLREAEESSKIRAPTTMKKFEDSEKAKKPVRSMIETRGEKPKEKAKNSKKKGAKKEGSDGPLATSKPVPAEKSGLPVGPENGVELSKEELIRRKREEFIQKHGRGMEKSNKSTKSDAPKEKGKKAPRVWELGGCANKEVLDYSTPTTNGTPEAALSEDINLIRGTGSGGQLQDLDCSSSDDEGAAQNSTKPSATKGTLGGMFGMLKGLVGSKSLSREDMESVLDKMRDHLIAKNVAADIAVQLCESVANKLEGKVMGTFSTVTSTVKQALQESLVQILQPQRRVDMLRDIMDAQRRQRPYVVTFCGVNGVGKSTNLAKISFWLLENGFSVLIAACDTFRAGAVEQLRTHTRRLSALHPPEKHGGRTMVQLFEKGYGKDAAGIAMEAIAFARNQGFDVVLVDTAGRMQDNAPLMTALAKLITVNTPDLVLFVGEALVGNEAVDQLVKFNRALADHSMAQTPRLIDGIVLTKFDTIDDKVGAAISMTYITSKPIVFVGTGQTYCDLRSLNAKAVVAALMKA
UniProt P13693: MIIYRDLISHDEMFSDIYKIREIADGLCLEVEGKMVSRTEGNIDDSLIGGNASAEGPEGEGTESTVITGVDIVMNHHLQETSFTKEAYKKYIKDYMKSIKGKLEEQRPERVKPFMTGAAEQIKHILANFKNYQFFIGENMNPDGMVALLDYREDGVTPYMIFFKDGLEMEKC
UniProt P0DMV8, whole entry, looked up: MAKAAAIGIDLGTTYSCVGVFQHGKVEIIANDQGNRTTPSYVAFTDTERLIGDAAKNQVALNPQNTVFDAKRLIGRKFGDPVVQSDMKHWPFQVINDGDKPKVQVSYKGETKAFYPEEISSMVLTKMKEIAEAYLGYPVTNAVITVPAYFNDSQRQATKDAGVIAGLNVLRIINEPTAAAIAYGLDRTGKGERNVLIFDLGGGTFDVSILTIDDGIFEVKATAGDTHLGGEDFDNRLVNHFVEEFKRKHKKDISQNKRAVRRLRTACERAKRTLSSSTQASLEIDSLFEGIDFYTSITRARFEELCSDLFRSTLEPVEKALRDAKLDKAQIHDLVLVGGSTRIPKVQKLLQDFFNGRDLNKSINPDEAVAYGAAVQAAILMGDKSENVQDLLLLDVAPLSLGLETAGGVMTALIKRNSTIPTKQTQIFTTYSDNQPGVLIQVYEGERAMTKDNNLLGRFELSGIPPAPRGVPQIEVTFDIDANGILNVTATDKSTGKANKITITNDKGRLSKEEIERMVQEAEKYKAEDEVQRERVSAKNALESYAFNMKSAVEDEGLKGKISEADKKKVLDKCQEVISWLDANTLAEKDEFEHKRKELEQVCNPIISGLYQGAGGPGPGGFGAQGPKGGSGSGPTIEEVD

Each target was assayed with COC(=O)/C=C/c1ccccc1 [methyl cinnamate] (assay: log2 ratio of iodoacetamide-alkyne labeling of the cysteine site, DMSO over compound (competition); higher = stronger covalent engagement of the cysteine by the compound, active = 1 or more). Details: 500 µM; treatment time 1 h; system: HEK293T cell lysate.
Outline: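 The log2 competition ratio per cysteine is defined as mean reporter intensity in control channels over mean reporter intensity in compound channels. Lysate from HEK293T cells (2 mg/mL) received electrophile (500 µM) or vehicle for 1 h at ambient temperature, followed by iodoacetamide alkyne for 1 h. Samples were clicked to sCIP-TMT reagents, pooled, trypsin-digested overnight at 37 °C, streptavidin-enriched, acid-eluted and run on Orbitrap Eclipse LC-MS/MS with FAIMS, with quantification in FragPipe. Three replicates with duplicate channels were used, and any cysteine quantified in only one replicate was excluded.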
For NME1 C109 (UniProt P15531), the “log2 ratio of iodoacetamide-alkyne labeling” value (“log2 ratio” below) was inactive: 0.184. In the case of HSP90AB1 C590 (UniProt P08238), the “log2 ratio” value is reported as inactive: -0.0211. For LYN C468 (UniProt P07948), the “log2 ratio” value was inactive: -0.0479. EEF2 C536 (UniProt P13639) was tested, and the “log2 ratio” value was inactive: -0.804. TXN C35 (UniProt P10599) was tested, and the “log2 ratio” value was inactive: 0.214. PDIA4 C555 (UniProt P13667) was tested, and the “log2 ratio” value was inactive: 0.127. For CBR1 C150 (UniProt P16152), the “log2 ratio” value was inactive: 0.158. With ALAD C75 (UniProt P13716) the “log2 ratio” value was inactive: 0.208. For ACTN1 C370 (UniProt P12814), the “log2 ratio” value was inactive: 0.333. In the case of CLTB C199 (UniProt P09497), the “log2 ratio” value is reported as inactive: 0.619. ETFA C109 (UniProt P13804) was tested, and the “log2 ratio” value was inactive: 0.182. In the case of SNRNP70 C39 (UniProt P08621), the “log2 ratio” value is reported as inactive: 0.359. With ESD C243 (UniProt P10768) the “log2 ratio” value was inactive: 0.0338. UniProt P14618_C49 was tested, and the “log2 ratio” value was inactive: 0.0528. For EEF2 C388 (UniProt P13639), the “log2 ratio” value was inactive: 0.115. In the case of EPRS C856 (UniProt P07814), the “log2 ratio” value is reported as inactive: 0.155. With PLS3 C463 (UniProt P13797) the “log2 ratio” value was inactive: 0.728. GOT1 C46 (UniProt P17174) was tested, and the “log2 ratio” value was inactive: 0.0275. For EEF2 C728 (UniProt P13639), the “log2 ratio” value was inactive: 0.112. For UniProt P14618_C326, the “log2 ratio” value was inactive: -0.121. For RPA2 C219 (UniProt P15927), the “log2 ratio” value was inactive: 0.31. PFKM C709 (UniProt P08237) was tested, and the “log2 ratio” value was inactive: -0.0662. With HNRNPL C581 (UniProt P14866) the “log2 ratio” value was inactive: 0.0326. With UniProt P10155_C520 the “log2 ratio” value was inactive: -0.0851. For ACADM C156 (UniProt P11310), the “log2 ratio” value was inactive: 0.342. XRCC5 C157 (UniProt P13010) was tested, and the “log2 ratio” value was inactive: 0.121. UniProt P08240_C253 was tested, and the “log2 ratio” value was inactive: 0.101. In the case of ESD C181 (UniProt P10768), the “log2 ratio” value is reported as inactive: -0.134. TPT1 C28 (UniProt P13693) was tested, and the “log2 ratio” value was inactive: -0.3. For DSP C174 (UniProt P15924), the “log2 ratio” value was inactive: 0.462. In the case of RNH1 C12 (UniProt P13489), the “log2 ratio” value is reported as inactive: -0.0835. For MTHFD1 C691 (UniProt P11586), the “log2 ratio” value was inactive: 0.0933. With Q95604 C125 (UniProt P10321) the “log2 ratio” value was inactive: 0.0281. In the case of SNRPB C43 (UniProt P14678), the “log2 ratio” value is reported as inactive: 0.0686. With PCNA C62 (UniProt P12004) the “log2 ratio” value was inactive: 0.145. UniProt P0DMV8_C603 was tested, and the “log2 ratio” value was inactive: 0.0376. In the case of PCNA C162 (UniProt P12004), the “log2 ratio” value is reported as inactive: 0.16.
